Data as given in PubChem BioAssay AID1259254 (NCATS, 2017).

- Test: 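Gene knock-downs that lead to re-replication, shown by excess G2 DNA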 (primary screen)
- Cell system: human HCT116 colorectal cancer cells
- Knock-down reagent: single siRNA against human genes
- Time to read-out: 3 days
- Measured: 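Imaged Hoechst DNA stain sorts each cell into a cycle phase by DNA amount; per plate, G2 fraction set to 0% for non-targeting and 100% for GMNN siRNA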
- Scale: G2 robust z-score and G2 cells, % of GMNN control: higher = more G2 cells, more excess DNA replication
- Rule for the call: 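Active siRNAs have a G2 robust z of 5 or more median absolute deviations over the median, which in these data means about 38% or higher of GMNN control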
This is a random part of about 59,000 reagents tested. About 1,550 of them (2.6%) were called active. 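G2 share is only a proxy for re-replication; each gene was hit by three separate siRNAs, and active genes were retested.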 Reagents against one gene are numbered here. Further read-outs or replicates are left out here. Not stated in the record: the amount of reagent.

LRRC4 #1 showed G2 robust z-score 1.38; G2 cells, % of GMNN control 12.7; inactive. LRRC4 #2 showed G2 robust z-score -0.0661; G2 cells, % of GMNN control 2.5; inactive. Knock-down of LRRC4 #3 resulted in: G2 robust z-score -0.901; G2 cells, % of GMNN control -3.38; inactive. After knock-down of KIAA0319L #1, the record shows G2 robust z-score 0.047; G2 cells, % of GMNN control 3.3; inactive. Against KIAA0319L #2, the values are G2 robust z-score 0.475; G2 cells, % of GMNN control 6.31; inactive. KIAA0319L #3 gave G2 robust z-score 2.11; G2 cells, % of GMNN control 17.8; inactive.

With knock-down of ARHGEF35 #1, the record shows G2 robust z-score -0.367; G2 cells, % of GMNN control 0.384; inactive. After knock-down of ARHGEF35 #2 the results were G2 robust z-score -0.454; G2 cells, % of GMNN control -0.229; inactive. Depletion of ARHGEF35 #3 came out at: G2 robust z-score -0.412; G2 cells, % of GMNN control 0.072; inactive. After knock-down of ATP2C1 #1, the record shows G2 robust z-score 0.621; G2 cells, % of GMNN control 7.34; inactive. For ATP2C1 #2, the entry reads G2 robust z-score 1.78; G2 cells, % of GMNN control 15.5; inactive. Depletion of ATP2C1 #3 gave: G2 robust z-score 0.598; G2 cells, % of GMNN control 7.18; inactive.

Against HOXA5 #1, the values are G2 robust z-score -1.28; G2 cells, % of GMNN control -6.06; inactive. Against HOXA5 #2 the deposit lists G2 robust z-score -0.879; G2 cells, % of GMNN control -3.22; inactive. HOXA5 #3 gave G2 robust z-score -0.832; G2 cells, % of GMNN control -2.89; inactive. After knock-down of GALC #1, the screen gave G2 robust z-score -1.27; G2 cells, % of GMNN control -5.94; inactive. With knock-down of GALC #2, the screen gave G2 robust z-score -0.0307; G2 cells, % of GMNN control 2.75; inactive. After knock-down of GALC #3, the screen gave G2 robust z-score 0.335; G2 cells, % of GMNN control 5.33; inactive.

Against JAG2 #1 the deposit lists G2 robust z-score 1.14; G2 cells, % of GMNN control 11; inactive. JAG2 #2 gave G2 robust z-score 0.726; G2 cells, % of GMNN control 8.08; inactive. JAG2 #3 gave G2 robust z-score 1.21; G2 cells, % of GMNN control 11.5; inactive. Depletion of GOLT1A #1 gave: G2 robust z-score 0.15; G2 cells, % of GMNN control 4.03; inactive. After knock-down of GOLT1A #2 the results were G2 robust z-score -0.0951; G2 cells, % of GMNN control 2.3; inactive. GOLT1A #3 showed G2 robust z-score 0.551; G2 cells, % of GMNN control 6.84; inactive.
